Laboratory results published in publication PMC6160451.
No constants are given. Whether binding was seen depends on the method and setting. In cells and extracts the contact can be indirect. These calls come from enrichment with a bait or labelling near it, and not all partners need be listed. For part of these data: No binding means not detected with the bait. For part of these data: Tags and fused reporters may be left off the sequences shown.

Protein sequences, listed by entry. Tags and fused reporters are not part of them.
UniProt Q8N2Y8: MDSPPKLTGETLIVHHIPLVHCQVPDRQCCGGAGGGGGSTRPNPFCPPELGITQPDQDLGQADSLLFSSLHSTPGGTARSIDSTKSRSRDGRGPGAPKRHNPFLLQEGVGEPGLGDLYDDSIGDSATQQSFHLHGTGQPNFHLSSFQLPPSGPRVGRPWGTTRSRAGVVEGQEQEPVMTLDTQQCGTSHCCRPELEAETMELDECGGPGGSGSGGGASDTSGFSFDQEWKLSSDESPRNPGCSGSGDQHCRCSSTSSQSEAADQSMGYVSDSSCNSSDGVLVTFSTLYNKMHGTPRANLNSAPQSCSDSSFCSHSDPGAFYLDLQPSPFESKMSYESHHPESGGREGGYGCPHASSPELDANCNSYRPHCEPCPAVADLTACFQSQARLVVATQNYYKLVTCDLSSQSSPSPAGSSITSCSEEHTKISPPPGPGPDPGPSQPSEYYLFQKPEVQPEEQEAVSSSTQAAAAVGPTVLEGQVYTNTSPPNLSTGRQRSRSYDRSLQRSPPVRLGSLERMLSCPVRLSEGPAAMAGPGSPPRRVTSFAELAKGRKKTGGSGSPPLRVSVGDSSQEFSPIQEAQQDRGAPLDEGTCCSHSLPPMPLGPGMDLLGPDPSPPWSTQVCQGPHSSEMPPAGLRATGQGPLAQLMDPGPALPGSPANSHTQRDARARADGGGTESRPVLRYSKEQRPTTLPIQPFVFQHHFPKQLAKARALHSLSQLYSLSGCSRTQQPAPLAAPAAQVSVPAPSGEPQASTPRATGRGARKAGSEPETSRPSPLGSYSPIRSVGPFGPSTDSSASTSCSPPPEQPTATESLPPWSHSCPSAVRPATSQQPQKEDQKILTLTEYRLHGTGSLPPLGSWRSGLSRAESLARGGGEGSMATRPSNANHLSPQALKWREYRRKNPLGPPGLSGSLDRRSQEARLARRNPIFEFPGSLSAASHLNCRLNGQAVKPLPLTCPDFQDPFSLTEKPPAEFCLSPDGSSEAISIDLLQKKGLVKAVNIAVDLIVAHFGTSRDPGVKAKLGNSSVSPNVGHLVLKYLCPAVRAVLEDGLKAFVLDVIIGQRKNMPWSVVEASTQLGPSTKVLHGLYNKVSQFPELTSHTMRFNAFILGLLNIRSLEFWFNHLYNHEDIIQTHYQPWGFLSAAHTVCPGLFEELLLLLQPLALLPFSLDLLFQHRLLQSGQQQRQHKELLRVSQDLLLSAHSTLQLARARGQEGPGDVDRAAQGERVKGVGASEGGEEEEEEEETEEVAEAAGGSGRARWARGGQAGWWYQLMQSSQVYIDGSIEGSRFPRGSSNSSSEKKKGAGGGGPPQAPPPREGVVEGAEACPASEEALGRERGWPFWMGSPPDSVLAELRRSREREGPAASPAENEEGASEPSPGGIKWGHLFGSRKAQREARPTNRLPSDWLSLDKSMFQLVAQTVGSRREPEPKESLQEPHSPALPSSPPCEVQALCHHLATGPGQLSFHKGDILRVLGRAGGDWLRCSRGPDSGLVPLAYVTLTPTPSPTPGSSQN

Assays:
[1] = target: T1, AP4E1-BirA* (human) (UniProt Q9UPM8); test: proximity labelling; BioID: HeLa cells stably expressing the BirA*-tagged AP-4 subunit, 50 µM biotin for 24 h, RIPA lysis, streptavidin agarose, label-free quantitative MS against HeLa, HeLa BirA* and HeLa GFP-BirA* controls, triplicate, FDR 5%
T1 sequence: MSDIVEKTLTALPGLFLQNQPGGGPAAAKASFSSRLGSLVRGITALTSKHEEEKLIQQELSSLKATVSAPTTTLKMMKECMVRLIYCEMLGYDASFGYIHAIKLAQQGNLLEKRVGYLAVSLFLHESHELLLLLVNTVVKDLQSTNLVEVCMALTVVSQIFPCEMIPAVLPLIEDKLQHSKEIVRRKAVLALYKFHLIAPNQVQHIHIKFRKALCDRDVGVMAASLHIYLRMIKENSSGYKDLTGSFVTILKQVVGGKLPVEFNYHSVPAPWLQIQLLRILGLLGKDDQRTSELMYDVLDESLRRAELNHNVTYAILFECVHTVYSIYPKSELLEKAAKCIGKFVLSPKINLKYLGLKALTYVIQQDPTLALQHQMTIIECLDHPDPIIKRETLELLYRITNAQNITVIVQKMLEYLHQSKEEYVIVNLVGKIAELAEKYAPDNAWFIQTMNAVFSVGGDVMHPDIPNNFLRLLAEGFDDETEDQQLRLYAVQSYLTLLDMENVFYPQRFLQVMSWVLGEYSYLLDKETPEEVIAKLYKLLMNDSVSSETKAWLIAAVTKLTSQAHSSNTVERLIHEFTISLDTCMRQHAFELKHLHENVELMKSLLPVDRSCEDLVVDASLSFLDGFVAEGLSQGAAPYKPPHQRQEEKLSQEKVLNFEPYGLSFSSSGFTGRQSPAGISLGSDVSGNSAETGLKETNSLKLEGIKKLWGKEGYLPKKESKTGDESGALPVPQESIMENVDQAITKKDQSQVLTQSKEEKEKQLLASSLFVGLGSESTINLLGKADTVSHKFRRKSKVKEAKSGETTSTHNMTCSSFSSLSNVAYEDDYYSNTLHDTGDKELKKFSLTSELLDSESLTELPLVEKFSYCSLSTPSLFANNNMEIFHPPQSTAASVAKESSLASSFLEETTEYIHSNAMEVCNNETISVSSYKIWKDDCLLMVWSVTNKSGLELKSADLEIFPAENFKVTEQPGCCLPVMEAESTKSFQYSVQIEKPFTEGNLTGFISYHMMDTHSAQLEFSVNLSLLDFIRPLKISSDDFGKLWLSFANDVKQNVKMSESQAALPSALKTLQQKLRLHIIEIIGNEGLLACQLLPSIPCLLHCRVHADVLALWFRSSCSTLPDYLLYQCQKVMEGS

[2] = target: T2, AP4M1-BirA* (human) (UniProt O00189); test: as above
T2 sequence: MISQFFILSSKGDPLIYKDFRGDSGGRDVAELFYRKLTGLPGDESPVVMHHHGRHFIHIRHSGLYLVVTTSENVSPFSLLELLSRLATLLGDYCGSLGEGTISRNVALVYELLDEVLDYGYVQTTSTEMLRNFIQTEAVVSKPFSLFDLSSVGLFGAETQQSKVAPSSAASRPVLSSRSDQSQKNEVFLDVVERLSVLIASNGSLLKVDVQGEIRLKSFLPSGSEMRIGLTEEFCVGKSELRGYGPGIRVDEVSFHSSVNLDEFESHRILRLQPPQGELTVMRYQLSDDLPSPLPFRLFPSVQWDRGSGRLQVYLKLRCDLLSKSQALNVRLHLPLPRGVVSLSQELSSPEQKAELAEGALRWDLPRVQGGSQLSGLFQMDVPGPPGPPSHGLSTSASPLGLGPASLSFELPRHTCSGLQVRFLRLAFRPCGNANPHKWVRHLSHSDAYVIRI

[3] = target: T3, TEPSIN-GFP (human) (UniProt Q96N21); test: affinity purification with mass spectrometry; sensitive low-detergent immunoprecipitation of TEPSIN-GFP from HeLa homogenate with GFP-Trap A beads, PBS with 0.01% Triton X-100, 4 °C, SILAC comparison with parental HeLa
T3 sequence: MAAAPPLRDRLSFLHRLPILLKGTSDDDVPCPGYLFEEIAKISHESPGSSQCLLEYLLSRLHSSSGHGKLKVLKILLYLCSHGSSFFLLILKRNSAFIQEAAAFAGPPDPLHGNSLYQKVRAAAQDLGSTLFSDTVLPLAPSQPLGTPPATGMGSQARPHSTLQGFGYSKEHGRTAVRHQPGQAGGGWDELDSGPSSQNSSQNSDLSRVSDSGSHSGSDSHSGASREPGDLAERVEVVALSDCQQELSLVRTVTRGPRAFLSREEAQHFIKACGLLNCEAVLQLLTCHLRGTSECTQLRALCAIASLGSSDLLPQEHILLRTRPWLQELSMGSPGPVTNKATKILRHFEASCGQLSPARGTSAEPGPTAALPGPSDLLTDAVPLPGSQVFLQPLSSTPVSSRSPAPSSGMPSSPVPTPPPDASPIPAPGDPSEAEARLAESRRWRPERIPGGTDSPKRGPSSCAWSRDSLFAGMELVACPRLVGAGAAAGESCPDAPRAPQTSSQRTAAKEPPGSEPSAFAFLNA

[4] = target: T3, TEPSIN-GFP (human); test: condition: only conventional immunoprecipitation protocol (PBS, 0.2% Triton X-100, 0.1% Tween-20); affinity purification with mass spectrometry; conventional immunoprecipitation of TEPSIN-GFP from HeLa lysate in PBS, 0.2% Triton X-100, 0.1% Tween-20, rabbit anti-GFP and Protein A sepharose, SILAC comparison with wild-type HeLa

Row | Molecule | binding [1] | binding [2] | binding [3] | binding [4]
1 | RUSC2 (RUN and SH3 domain-containing protein 2) (from UniProt Q8N2Y8 1-1516) | binds | binds | – | –
2 | TEPSIN (protein, UniProt Q96N21 1-525) MAAAPPLRDRLSFLHRLPILLKGTSDDDVPCPGYLFEEIAKISHESPGSSQCLLEYLLSRLHSSSGHGKLKVLKILLYLCSHGSSFFLLILKRNSAFIQEAAAFAGPPDPLHGNSLYQKVRAAAQDLGSTLFSDTVLPLAPSQPLGTPPATGMGSQARPHSTLQGFGYSKEHGRTAVRHQPGQAGGGWDELDSGPSSQNSSQNSDLSRVSDSGSHSGSDSHSGASREPGDLAERVEVVALSDCQQELSLVRTVTRGPRAFLSREEAQHFIKACGLLNCEAVLQLLTCHLRGTSECTQLRALCAIASLGSSDLLPQEHILLRTRPWLQELSMGSPGPVTNKATKILRHFEASCGQLSPARGTSAEPGPTAALPGPSDLLTDAVPLPGSQVFLQPLSSTPVSSRSPAPSSGMPSSPVPTPPPDASPIPAPGDPSEAEARLAESRRWRPERIPGGTDSPKRGPSSCAWSRDSLFAGMELVACPRLVGAGAAAGESCPDAPRAPQTSSQRTAAKEPPGSEPSAFAFLNA | binds | binds | – | –
3 | ATG9A (Autophagy-related protein 9A) (protein, UniProt Q7Z3C6 1-839) MAQFDTEYQRLEASYSDSPPGEEDLLVHVAEGSKSPWHHIENLDLFFSRVYNLHQKNGFTCMLIGEIFELMQFLFVVAFTTFLVSCVDYDILFANKMVNHSLHPTEPVKVTLPDAFLPAQVCSARIQENGSLITILVIAGVFWIHRLIKFIYNICCYWEIHSFYLHALRIPMSALPYCTWQEVQARIVQTQKEHQICIHKRELTELDIYHRILRFQNYMVALVNKSLLPLRFRLPGLGEAVFFTRGLKYNFELILFWGPGSLFLNEWSLKAEYKRGGQRLELAQRLSNRILWIGIANFLLCPLILIWQILYAFFSYAEVLKREPGALGARCWSLYGRCYLRHFNELEHELQSRLNRGYKPASKYMNCFLSPLLTLLAKNGAFFAGSILAVLIALTIYDEDVLAVEHVLTTVTLLGVTVTVCRSFIPDQHMVFCPEQLLRVILAHIHYMPDHWQGNAHRSQTRDEFAQLFQYKAVFILEELLSPIVTPLILIFCLRPRALEIIDFFRNFTVEVVGVGDTCSFAQMDVRQHGHPQWLSAGQTEASVYQQAEDGKTELSLMHFAITNPGWQPPRESTAFLGFLKEQVQRDGAAASLAQGGLLPENALFTSIQSLQSESEPLSLIANVVAGSSCRGPPLPRDLQGSRHRAEVASALRSFSPLQPGQAPTGRAHSTMTGSGVDARTASSGSSVWEGQLQSLVLSEYASTEMSLHALYMHQLHKQQAQAEPERHVWHRRESDESGESAPDEGGEGARAPQSIPRSASYPCAAPRPGAPETTALHGGFQRRYGGITDPGTVPRVPSHFSRLPLGGWAEDGQSASRHPEPVPEEGSEDELPPQVHKV | binds | binds | binds | no binding
4 | SERINC1 (Serine incorporator 1) (protein, UniProt Q9NRX5 1-453) MGSVLGLCSMASWIPCLCGSAPCLLCRCCPSGNNSTVTRLIYALFLLVGVCVACVMLIPGMEEQLNKIPGFCENEKGVVPCNILVGYKAVYRLCFGLAMFYLLLSLLMIKVKSSSDPRAAVHNGFWFFKFAAAIAIIIGAFFIPEGTFTTVWFYVGMAGAFCFILIQLVLLIDFAHSWNESWVEKMEEGNSRCWYAALLSATALNYLLSLVAIVLFFVYYTHPASCSENKAFISVNMLLCVGASVMSILPKIQESQPRSGLLQSSVITVYTMYLTWSAMTNEPETNCNPSLLSIIGYNTTSTVPKEGQSVQWWHAQGIIGLILFLLCVFYSSIRTSNNSQVNKLTLTSDESTLIEDGGARSDGSLEDGDDVHRAVDNERDGVTYSYSFFHFMLFLASLYIMMTLTNWYRYEPSREMKSQWTAVWVKISSSWIGIVLYVWTLVAPLVLTNRDFD | – | – | binds | no binding
5 | SERINC3 (Serine incorporator 3) (protein, UniProt Q13530 1-473) MGAVLGVFSLASWVPCLCSGASCLLCSCCPNSKNSTVTRLIYAFILLLSTVVSYIMQRKEMETYLKKIPGFCEGGFKIHEADINADKDCDVLVGYKAVYRISFAMAIFFFVFSLLMFKVKTSKDLRAAVHNGFWFFKIAALIGIMVGSFYIPGGYFSSVWFVVGMIGAALFILIQLVLLVDFAHSWNESWVNRMEEGNPRLWYAALLSFTSAFYILSIICVGLLYTYYTKPDGCTENKFFISINLILCVVASIISIHPKIQEHQPRSGLLQSSLITLYTMYLTWSAMSNEPDRSCNPNLMSFITRITAPTLAPGNSTAVVPTPTPPSKSGSLLDSDNFIGLFVFVLCLLYSSIRTSTNSQVDKLTLSGSDSVILGDTTTSGASDEEDGQPRRAVDNEKEGVQYSYSLFHLMLCLASLYIMMTLTSWYSPDAKFQSMTSKWPAVWVKISSSWVCLLLYVWTLVAPLVLTSRDFS | – | – | binds | no binding
